1 molecule from article PMC6224593 can be followed below.

No constants are given. Whether binding was seen depends on the method and setting. For some assays here: Binding calls can cover weak binding; strength is not graded here.

Assay [1] has as its target ComR of Streptococcus mutans UA159 (Streptococcus mutans UA159). The experiment in a line: ITC; XIP injected into ComR that was incubated with a 1.5 molar excess of paratox for 10 min; VP-ITC, 25 °C; matched DMSO; both purified. Background: Isothermal titration calorimetry measures the heat released or taken up as one component is titrated into another.
Assay [2] addresses paratox (Prx) of Streptococcus pyogenes MGAS315 (Streptococcus pyogenes MGAS315). The experiment in a line: ITC; control: XIP titrated into dilute paratox alone; VP-ITC, 25 °C; matched DMSO; both purified.

Regarding GLDWWSL [XIP (sigX-inducing peptide) of Streptococcus mutans UA159], the binding entry in assay [1] is “binds”; in assay [2] it was “no binding”.
